In patent US6743419B1, “Method of reducing hair growth employing sulfhydryl active compounds” (The Gillette Company, priority 1992, dated 2004):
For at least one compound, name, drawing or mass did not settle the structure.

How the values were obtained:
[1] = Formation of cysteine-mixed disulfide in vitro (incubation with cystine or cysteine, HPLC); conditions: pH 7.4, 37° C.
[2] = Reduction of cystine (generation of cysteine on incubation with cystine, HPLC); conditions: 37 C, pH 7.4
[3] = Formation of cysteine-mixed disulfide in hair shafts after topical treatment; format: in vivo, Golden Syrian hamsters; conditions: thirteen topical treatments over 18 days, flank organ

Row | SMILES | Formation of Cysteine mixed disulfide in-vitro [1] | Reduction of Cystine [2] | Formation of Cysteine mixed disulfide in hair shaft [3]
1 | O=C(O)CCCCC1CCSS1 (racemic) [DL-α-Lipoic acid (reduced form), DL-α-Lipoic acid] | NO | NO | 
2 | O=S(=O)(O)CC(S)CS (stereo not shown) [2,3,-Dimercapto-1-propanesulfonic acid] |  |  | NO
3 | O=C(O)[C@@H](S)[C@@H](S)C(=O)O [meso-2,3,-Dimercaptosuccinic acid] | NO |  | 
